Data as given in paper PMC7819943, “Rice protein-binding microarrays: a tool to detect cis-acting elements near promoter regions in rice”.
This is one part of the list.

Chains of the proteins cited; added tags and fusions are not shown.
UniProt Q0JBA9, entry or part of it: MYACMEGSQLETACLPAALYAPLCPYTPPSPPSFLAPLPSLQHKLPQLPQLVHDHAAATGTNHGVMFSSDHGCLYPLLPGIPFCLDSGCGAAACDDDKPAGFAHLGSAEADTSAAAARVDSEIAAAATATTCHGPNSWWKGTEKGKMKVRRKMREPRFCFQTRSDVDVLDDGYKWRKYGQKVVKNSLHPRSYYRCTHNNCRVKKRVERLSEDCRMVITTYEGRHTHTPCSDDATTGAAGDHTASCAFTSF

Target: OsWRKY34 (Oryza sativa, UniProt Q0JBA9 1-250)
Assay: protein-binding microarray (RPBM); PBS, 2% BSA, 51.3 ng/ul salmon testes DNA, 50 uM zinc acetate, 200 nM TF, 25 C, 1 h; high values mean tight binding
Conditions: protein: recombinant; tags: N-terminal polyhistidine and DsRed monomer fusion (pET32a); label: CyDye5-dUTP incorporated in the synthesized complementary strand; 3' TTTTT single-stranded linker to array surface; dsDNA, one strand shown
Outline: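 Using Ni–NTA, transcription factors fused N-terminally to polyhistidine and DsRed were purified after expression in E. coli BL21-CodonPlus. These were incubated at 200 nM with a blocked, double-stranded custom Agilent array for 1 h at 25 °C in a buffer containing 50 µM zinc acetate, and the array was washed. The binding signal is per-feature fluorescence intensity (arbitrary units) on an Axon 4000B scanner.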

| Sequence | binding signal |
| --- | --- |
| TTCCTGTGTTTTGCAATCCGCTGTTTTACACTTACATTCCCGGAGTCACCTAGTGCAG | 17300 fluorescence intensity (a.u.) |
| ATCGCGCCCGCCGTCGACGACCCACGCAAGCACGCACTCGCGGAGTCACCTAGTGCAG | 8830 fluorescence intensity (a.u.) |
| ATTATTTTTGTTTCACTGATTCACCTGTTGCATATGTAATCGGAGTCACCTAGTGCAG | 8560 fluorescence intensity (a.u.) |
| CTTGGGCCGATGCATTATTTATACTAGTTTCATGCCCGCGCGGAGTCACCTAGTGCAG | 8270 fluorescence intensity (a.u.) |
| TTGGGTTGGGTTGGTGAGGTGGGGAGATGGTTTGGTGAGGCGGAGTCACCTAGTGCAG | 17300 fluorescence intensity (a.u.) |
| CCTCGAGGGATTAGAATCCACTCCCATTCTATACTTCTATCGGAGTCACCTAGTGCAG | 8280 fluorescence intensity (a.u.) |
| CAACGACTACGGCCTGGTTTAGTTCCCATAAATTTTTCCCCGGAGTCACCTAGTGCAG | 10600 fluorescence intensity (a.u.) |
| TAACTAAGACCCTCCACGCCTGTTAGTCTGTATGTCATTTCGGAGTCACCTAGTGCAG | 10100 fluorescence intensity (a.u.) |
| GCACTTCCTATCTCAAATACGACTGCTTCGTCGTAACCCTCGGAGTCACCTAGTGCAG | 9460 fluorescence intensity (a.u.) |
| ATTTAAAATAGTTTGACTTTGACCAAAGTCAAAACATCTTCGGAGTCACCTAGTGCAG | 13500 fluorescence intensity (a.u.) |
| TGGCATTGGTAGGATCTAGATCTTGTGTTAATTATAATTCCGGAGTCACCTAGTGCAG | 9020 fluorescence intensity (a.u.) |
| TTTTCTCCTACTCCTCTATTTTCTCAATCGTGTGTTTCAACGGAGTCACCTAGTGCAG | 14400 fluorescence intensity (a.u.) |
| TTCTTTCCACCGTCCGATCTCACCGTAGGGTCAATCTGGCCGGAGTCACCTAGTGCAG | 8440 fluorescence intensity (a.u.) |
| CCGCATCAATCTTCAACTGGTCAACATAAAATCTACTGTTCGGAGTCACCTAGTGCAG | 8940 fluorescence intensity (a.u.) |
| ACATTTGTTAGAGTTCCATTATGCTCCTGCTAACTTTTTCCGGAGTCACCTAGTGCAG | 9080 fluorescence intensity (a.u.) |
| ATATGTTTTGTTCGGTACTATTTTGCTATAACGTGTGACGCGGAGTCACCTAGTGCAG | 9630 fluorescence intensity (a.u.) |
| CCTGCCATCATATTTCATGCCTTGCTACGTTTGCTTGATGCGGAGTCACCTAGTGCAG | 11300 fluorescence intensity (a.u.) |
| GTTTGGTGTTTTTTGCGGGCATTTCTGACATGATTTTCCCCGGAGTCACCTAGTGCAG | 8360 fluorescence intensity (a.u.) |
| ACTTTGATCATAAAATGAGTTACTCTTACTTTCTTTTATTCGGAGTCACCTAGTGCAG | 8920 fluorescence intensity (a.u.) |
| AGTGAACTTTTTCCTTGGATGGACCAGTTGCGCCCTAGTTCGGAGTCACCTAGTGCAG | 9350 fluorescence intensity (a.u.) |
| CCACGAAATCTGCTGCACTCACTCCCTGTGGTCGGGCCCACGGAGTCACCTAGTGCAG | 9680 fluorescence intensity (a.u.) |
| TATCTCACACGGGAAGTCGTTCGAGTCGTCGTCTTCGTCTCGGAGTCACCTAGTGCAG | 8230 fluorescence intensity (a.u.) |
| TGGTGGAGCTGCCCAAGGTGGGCGGGAGCGGGGCGGCACTCGGAGTCACCTAGTGCAG | 9280 fluorescence intensity (a.u.) |
| TCCTCATCCAACTCGTCGTTTAATTTGCTGCACCGGCGAACGGAGTCACCTAGTGCAG | 11600 fluorescence intensity (a.u.) |
| TCAGGGATTGGTGTGGTGCAGAACTGATCTAAGTCTAACTCGGAGTCACCTAGTGCAG | 8310 fluorescence intensity (a.u.) |
| TTAGTTTTTTAGCATAAATTTGTCGCAAATTTGTTTTATACGGAGTCACCTAGTGCAG | 9500 fluorescence intensity (a.u.) |
| ATCTATTAGCTTAGGTGTTGGTCTTCTCTCGTAGTCGGGTCGGAGTCACCTAGTGCAG | 8140 fluorescence intensity (a.u.) |

Individual results from the entries so far:
binding signal with TTGGGTTGGGTTGGTGAGGTGGGGAGATGGTTTGGTGAGGCGGAGTCACCTAGTGCAG reads 17300 fluorescence intensity (a.u.)
binding signal with ACATTTGTTAGAGTTCCATTATGCTCCTGCTAACTTTTTCCGGAGTCACCTAGTGCAG reads 9080 fluorescence intensity (a.u.)

Further results follow:

| Sequence | binding signal |
| --- | --- |
| AGGGTTGGGGCAGTTGATGTCGATGATCAGTGTGATTCAGCGGAGTCACCTAGTGCAG | 8550 fluorescence intensity (a.u.) |
| GATGCGTTATACCCGGTTTTTGGTTTTGGAAGACTAGCGACGGAGTCACCTAGTGCAG | 8280 fluorescence intensity (a.u.) |
| GTCATTCTAGCATTTCTCACATTCATATGGATTTTAATGACGGAGTCACCTAGTGCAG | 8580 fluorescence intensity (a.u.) |
| GACTAGTTTACCTGTTGTCTGTTCCGACATTCGAGCGGCCCGGAGTCACCTAGTGCAG | 10400 fluorescence intensity (a.u.) |
| GATTATTATTTGTATTACTTTCTTAGGGTTTTCTCTTGATCGGAGTCACCTAGTGCAG | 13200 fluorescence intensity (a.u.) |
| GCCCGAGAGCGAACGGCCGTCTGCCACGTCATTTTCGCCGCGGAGTCACCTAGTGCAG | 10200 fluorescence intensity (a.u.) |
| TGTGAGGCAGTGTGGGATTTCCTTCTTTTTTTTTTCTTCTCGGAGTCACCTAGTGCAG | 11500 fluorescence intensity (a.u.) |
| CCTTTTTAGTCGGACTTCTTTTTCTTTTTTACCGACTTTGCGGAGTCACCTAGTGCAG | 10300 fluorescence intensity (a.u.) |
| ATGTACAGCCCACACATCCCCTCAGCTTCCGTTATTACCTCGGAGTCACCTAGTGCAG | 8500 fluorescence intensity (a.u.) |
| TCCACCACCACCACCTCCTCTGCTCTCCACTCCTCGCATGCGGAGTCACCTAGTGCAG | 9540 fluorescence intensity (a.u.) |
| TCCTGCTGCTCTGCGCCAACGCGCTCGTCTTCTTCCCGCGCGGAGTCACCTAGTGCAG | 10500 fluorescence intensity (a.u.) |
| ATCTCCTTTCCTTTTTTTTTCTTTCAAAGGCGTAAAATTACGGAGTCACCTAGTGCAG | 13200 fluorescence intensity (a.u.) |
| CTGTCCCTGGGCCCTGTATATATCACAACTCACGAGCCATCGGAGTCACCTAGTGCAG | 8890 fluorescence intensity (a.u.) |
| TTGTGCTTTATACTTTTGGTTAACCTATTATATTCCGCTTCGGAGTCACCTAGTGCAG | 10500 fluorescence intensity (a.u.) |
| AGAAACCATTCCTGGCCACCAACCTCTCTATCCGCCAAAACGGAGTCACCTAGTGCAG | 9040 fluorescence intensity (a.u.) |
| GCCCATATGTCCGTCACGAACTCACGATCCCGTTCCGACACGGAGTCACCTAGTGCAG | 9380 fluorescence intensity (a.u.) |
| TATACCACCGTGAAGTACTACCACCGCATCTCCGGCAATGCGGAGTCACCTAGTGCAG | 8030 fluorescence intensity (a.u.) |
| CTCACCTCACTCACCTACATCGCCGGATCGATCGCACCGTCGGAGTCACCTAGTGCAG | 8990 fluorescence intensity (a.u.) |
| TACTACTATCTTCTTTCATTCAACTATCTTCTTATTTTATCGGAGTCACCTAGTGCAG | 11200 fluorescence intensity (a.u.) |
| GCTTCAAACTCGAGCTTCTACCAGTACCAGCTACCAGGTGCGGAGTCACCTAGTGCAG | 8190 fluorescence intensity (a.u.) |
| CGTATCTTGGTCGTTTTTTTGTTGCGTTGTTATCATCTTTCGGAGTCACCTAGTGCAG | 9120 fluorescence intensity (a.u.) |
| TTTGTAGCTACTAGCTCAGCGTTTGTTTTTATTCTTCTTTCGGAGTCACCTAGTGCAG | 8890 fluorescence intensity (a.u.) |
| GTGCGCGTTCTTGGTGTTATGGAGGCGGGTCTCGGCGGGGCGGAGTCACCTAGTGCAG | 17600 fluorescence intensity (a.u.) |
| GGTCATTCCTATGTCTTTTTTATTTTGTAATCATTTGTTTCGGAGTCACCTAGTGCAG | 10900 fluorescence intensity (a.u.) |
| TTCTCTCGTACGTAAGTTTCTCGAAATGCTATGCGCTTTCCGGAGTCACCTAGTGCAG | 10300 fluorescence intensity (a.u.) |
| GATTAGTAGTAGTAGTACTACTCCTCGTCGTCGTCGTCCTCGGAGTCACCTAGTGCAG | 8380 fluorescence intensity (a.u.) |
| AAATATTATATTTATAAAAACAATTAGCTACCAAGACTAACGGAGTCACCTAGTGCAG | 13000 fluorescence intensity (a.u.) |
